According to PubChem BioAssay AID330 (DTP/NCI, 2004):
The list shows only some results of the screen, not a fair sample: it is rich in T/C values a quarter to a half above the control, in often repeated tests (any T/C) and in doses without a T/C. Further doses and runs are listed elsewhere. T/C: endpoint of the treated group in % of that of the vehicle group. Some doses have a count of surviving animals in place of a T/C: the source holds a T/C of zero for them, seemingly a mark for toxic or unscored doses. Some doses without a T/C left all or most animals alive at the check, yet need not have been tolerated: the source hardly ever lists a survival T/C far under the control, and the zero likely stands for such cases as well. Counts of survivors are from the toxicity check (mostly the fifth day) where no day follows; animals may have died later. Schedule codes are those of the source, read here as Q, the interval in days (D) or hours (H), X, the number of doses. Counts like (3×) count equal records among those shown. Some entries hold several experiments; the results are listed from low to high. Where survival is the endpoint, this PubChem deposit counts one and a half times the control or more as active, and values a quarter to a half above the control carry no call in these data; other NCI protocols may use other cut-offs. Some T/C values are followed by the survivors on the day toxicity was checked, most often the fifth; without a count, all were alive then.

System: P388 leukemia ip, CD2F1 mice, survival T/C
Assay: NCI In Vivo Anticancer Drug Screen. Data for tumor model P388 Leukemia (intraperitoneal) in CD2F1 (CDF1) mice
Settings: T/C endpoint: median survival time, higher T/C = longer survival

## COc1cccc2c1C(=O)c1c(O)c3c(c(O)c1C2=O)C[C@@](O)(C(=O)CO)C[C@@H]3OC1CC(N)C(O)C(C)O1 (some centres not stated)
dose: 1.08 mg/kg/injection, schedule: Q01DX009 (ip), vehicle: saline, evaluated on day 30
  T/C: 157 % of control
dose: 1.08 mg/kg/injection, schedule: Q01DX009 (ip), vehicle: saline, evaluated on day 45
  T/C: 186 % of control
dose: 1.08 mg/kg/injection, schedule: Q01DX009 (ip), vehicle: saline, evaluated on day 60
  T/C: 233 and 236 % of control
dose: 1.25 mg/kg/injection, schedule: Q01DX001 (ip), vehicle: water, evaluated on day 30
  T/C: 154 and 188 % of control
dose: 1.25 mg/kg/injection, schedule: Q01DX001 (ip), vehicle: water, evaluated on day 45
  T/C: 144, 154, 155, 158, 159 (2×), 167, 173 % of control
dose: 1.25 mg/kg/injection, schedule: Q04DX003 (ip), vehicle: saline
  T/C: 132 % of control
dose: 1.3 mg/kg/injection, schedule: Q01DX004 (ip), vehicle: saline
  T/C: 145 % of control
dose: 1.3 mg/kg/injection, schedule: Q04DX002 (ip), vehicle: saline
  T/C: 145 % of control
dose: 1.3 mg/kg/injection, schedule: Q04DX002 (ip), vehicle: water
  T/C: 138 % of control
dose: 1.3 mg/kg/injection, schedule: Q04DX003 (ip), vehicle: saline, evaluated on day 9
  T/C: 124 % of control
dose: 1.3 mg/kg/injection, schedule: Q04DX003 (ip), vehicle: saline, evaluated on day 45
  T/C: 163 [7 of 8 alive] and 182 % of control
dose: 1.3 mg/kg/injection, schedule: Q04DX003 (ip), vehicle: saline, evaluated on day 60
  T/C: 192 % of control
dose: 1.5 mg/kg/injection, schedule: Q04DX003 (ip), vehicle: saline
  T/C: 103, 105, 129 [survivors not given], 194 % of control [survivors not given]
dose: 1.5 mg/kg/injection, schedule: Q04DX003 (ip), vehicle: water
  T/C: 133 % of control
dose: 1.56 mg/kg/injection, schedule: Q01DX001 (ip), vehicle: saline
  T/C: 149 % of control
dose: 1.56 mg/kg/injection, schedule: Q01DX009 (ip), vehicle: water, evaluated on day 30
  T/C: 86, 91, 95, 100, 101, 112, 192, 200, 205, 210, 240, 242, 257 % of control
dose: 1.56 mg/kg/injection, schedule: Q01DX009 (ip), vehicle: water, evaluated on day 45
  T/C: 92, 99, 100, 105, 109, 111, 119, 122 (2×), 196, 213, 215, 216 (2×), 224, 227 % of control (2×)
dose: 1.56 mg/kg/injection, schedule: Q01DX009 (ip), vehicle: water
  survivor count: 3 of 6 and 6 of 6 (2×)
dose: 1.6 mg/kg/injection, schedule: Q01DX004 (ip), vehicle: saline
  T/C: 147 % of control
dose: 1.62 mg/kg/injection, schedule: Q04DX003 (ip), vehicle: saline, evaluated on day 45
  T/C: 118, 155, 156, 162, 169, 180, 182, 185, 188 (2×), 196 % of control
dose: 1.62 mg/kg/injection, schedule: Q04DX003 (ip), vehicle: saline, evaluated on day 60
  T/C: 163 % of control
dose: 1.8 mg/kg/injection, schedule: Q01DX001 (ip), vehicle: saline
  T/C: 139 % of control
dose: 1.8 mg/kg/injection, schedule: Q01DX009 (ip), vehicle: saline, evaluated on day 30
  T/C: 182 % of control
dose: 1.8 mg/kg/injection, schedule: Q01DX009 (ip), vehicle: saline, evaluated on day 45
  T/C: 205 % of control
dose: 1.8 mg/kg/injection, schedule: Q01DX009 (ip), vehicle: saline, evaluated on day 60
  T/C: 163 and 259 % of control
dose: 2.0 mg/kg/injection, schedule: Q01DX001 (ip), vehicle: other
  T/C: 141 % of control [9 of 10 alive]
dose: 2.0 mg/kg/injection, schedule: Q01DX001 (ip), vehicle: saline with Tween-80
  T/C: 132 % of control
dose: 2.0 mg/kg/injection, schedule: Q01DX001 (ip), vehicle: saline, evaluated on day 3
  T/C: 160 % of control
dose: 2.0 mg/kg/injection, schedule: Q01DX001 (ip), vehicle: saline, evaluated on day 5
  T/C: 93, 100, 102 (2×), 118, 119, 131, 134 % of control
dose: 2.0 mg/kg/injection, schedule: Q01DX001 (ip), vehicle: saline, evaluated on day 7
  T/C: 129, 143, 148 % of control
dose: 2.0 mg/kg/injection, schedule: Q01DX001 (ip), vehicle: saline, evaluated on day 9
  T/C: 124 and 130 % of control
dose: 2.0 mg/kg/injection, schedule: Q01DX001 (ip), vehicle: saline, evaluated on day 30
  T/C: 129 and 189 % of control
dose: 2.0 mg/kg/injection, schedule: Q01DX001 (ip), vehicle: saline, evaluated on day 35
  T/C: 139 % of control
dose: 2.0 mg/kg/injection, schedule: Q01DX001 (ip), vehicle: saline, evaluated on day 45
  T/C: 119 % of control
dose: 2.0 mg/kg/injection, schedule: Q01DX001 (ip), vehicle: saline, evaluated on day 60
  T/C: 122 % of control
dose: 2.0 mg/kg/injection, schedule: Q01DX005 (sc), vehicle: water
  T/C: 130 % of control
dose: 2.0 mg/kg/injection, schedule: Q01DX009 (ip), vehicle: saline, evaluated on day 5
  T/C: 222 and 300 % of control
dose: 2.0 mg/kg/injection, schedule: Q01DX009 (ip), vehicle: saline, evaluated on day 30
  T/C: 112 and 127 % of control
dose: 2.0 mg/kg/injection, schedule: Q01DX009 (ip), vehicle: saline, evaluated on day 45
  T/C: 214, 216, 228, 305 % of control
dose: 2.0 mg/kg/injection, schedule: Q01DX009 (ip), vehicle: saline, evaluated on day 60
  T/C: 103, 182, 264 % of control
dose: 2.0 mg/kg/injection, schedule: Q01DX009 (ip), vehicle: saline
  survivor count: 10 of 10
dose: 2.0 mg/kg/injection, schedule: Q01DX009 (ip), vehicle: water, evaluated on day 5
  T/C: 136 % of control
dose: 2.0 mg/kg/injection, schedule: Q01DX009 (ip), vehicle: water, evaluated on day 30
  T/C: 90, 95, 98, 99, 106 (2×), 107, 108, 109 (2×), 110 (2×), 111, 115 (2×), 116, 117, 132, 151, 153, 163, 181, 190, 194 (2×), 202, 215, 223, 250, 254, 257 [5 of 6 alive], 278 % of control [5 of 6 alive]
dose: 2.0 mg/kg/injection, schedule: Q01DX009 (ip), vehicle: water, evaluated on day 45
  T/C: 87, 89, 101, 104 (2×), 107, 114, 121, 132, 141, 165 (2×), 180, 191, 192, 210, 219, 236, 259, 267 % of control
dose: 2.0 mg/kg/injection, schedule: Q01DX009 (ip), vehicle: water, evaluated on day 60
  T/C: 113 % of control
dose: 2.0 mg/kg/injection, schedule: Q01DX009 (ip), vehicle: water
  survivor count: 6 of 6 (2×)
dose: 2.0 mg/kg/injection, schedule: Q04DX003 (ip), vehicle: saline, evaluated on day 5
  T/C: 172, 189, 200, 216, 231 % of control
dose: 2.0 mg/kg/injection, schedule: Q04DX003 (ip), vehicle: saline, evaluated on day 8
  T/C: 137 % of control
dose: 2.0 mg/kg/injection, schedule: Q04DX003 (ip), vehicle: saline, evaluated on day 9
  T/C: 136 % of control
dose: 2.0 mg/kg/injection, schedule: Q04DX003 (ip), vehicle: saline, evaluated on day 30
  T/C: 108, 116, 117 (2×), 118 (3×), 119, 120, 122, 128, 130, 133, 135, 137, 138, 144, 153, 179 % of control
dose: 2.0 mg/kg/injection, schedule: Q04DX003 (ip), vehicle: saline, evaluated on day 45
  T/C: 168, 176, 205 % of control
dose: 2.0 mg/kg/injection, schedule: Q04DX003 (ip), vehicle: water, evaluated on day 30, list 1 of 2
  T/C: 109 [5 of 6 alive], 110, 112, 113, 115 [5 of 6 alive], 119, 120, 121 (2×), 122 (2×), 123 (2×), 124, 126 (3×), 127, 128 (2×), 129 (2×), 132, 133, 134, 135 [5 of 6 alive on day 9], 137 (2×), 138, 142, 145 (2×), 154, 161, 164 % of control
